Data published in the supplement of paper PMC12823440, “Inhibitors supercharge kinase turnover through native proteolytic circuits” (Nature, 2025).
This is one part of the list. The calls rarely recur for the same compound in another form.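 Kinases were expressed as nanoluciferase fusions in K562 cells and luminescence was read every 4 h between 2 and 18 h as percent of control, DMSO set to 100% and a positive control to 0%. A time point counts as decreased when the signal drops significantly (2 sigma). The hit call is the authors' own, does not follow from the count of time points alone, and its rule is not shown.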

Protein sequences, listed by entry. Tags and fused reporters are not part of them. Lines headed by an entry give the natural chain unless they say otherwise; changes in a name come on top.
UniProt O75460: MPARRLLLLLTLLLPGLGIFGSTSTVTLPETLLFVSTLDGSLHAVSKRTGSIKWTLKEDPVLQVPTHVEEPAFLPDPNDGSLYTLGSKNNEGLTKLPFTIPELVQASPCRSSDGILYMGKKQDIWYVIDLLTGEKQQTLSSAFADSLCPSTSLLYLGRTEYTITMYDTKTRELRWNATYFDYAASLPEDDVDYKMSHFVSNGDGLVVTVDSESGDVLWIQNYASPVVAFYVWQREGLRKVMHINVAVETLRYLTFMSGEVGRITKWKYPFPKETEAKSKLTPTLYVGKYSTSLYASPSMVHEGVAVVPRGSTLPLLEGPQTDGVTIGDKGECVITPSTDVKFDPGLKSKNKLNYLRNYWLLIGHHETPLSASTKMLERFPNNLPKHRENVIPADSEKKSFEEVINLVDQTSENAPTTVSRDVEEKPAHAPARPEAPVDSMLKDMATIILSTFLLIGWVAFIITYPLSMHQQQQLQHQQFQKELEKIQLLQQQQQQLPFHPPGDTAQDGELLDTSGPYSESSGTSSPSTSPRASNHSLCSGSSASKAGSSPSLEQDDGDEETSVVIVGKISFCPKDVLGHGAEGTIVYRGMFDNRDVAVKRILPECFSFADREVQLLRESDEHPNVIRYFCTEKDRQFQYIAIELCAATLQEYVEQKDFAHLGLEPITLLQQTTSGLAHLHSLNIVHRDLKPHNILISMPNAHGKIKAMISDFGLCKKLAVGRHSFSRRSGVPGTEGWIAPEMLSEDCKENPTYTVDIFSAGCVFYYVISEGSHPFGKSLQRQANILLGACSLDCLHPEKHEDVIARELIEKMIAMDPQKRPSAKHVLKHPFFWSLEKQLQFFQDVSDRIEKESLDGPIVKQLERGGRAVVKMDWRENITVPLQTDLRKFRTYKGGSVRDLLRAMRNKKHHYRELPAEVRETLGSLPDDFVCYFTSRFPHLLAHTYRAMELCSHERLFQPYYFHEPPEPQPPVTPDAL
UniProt P11362, whole entry, looked up: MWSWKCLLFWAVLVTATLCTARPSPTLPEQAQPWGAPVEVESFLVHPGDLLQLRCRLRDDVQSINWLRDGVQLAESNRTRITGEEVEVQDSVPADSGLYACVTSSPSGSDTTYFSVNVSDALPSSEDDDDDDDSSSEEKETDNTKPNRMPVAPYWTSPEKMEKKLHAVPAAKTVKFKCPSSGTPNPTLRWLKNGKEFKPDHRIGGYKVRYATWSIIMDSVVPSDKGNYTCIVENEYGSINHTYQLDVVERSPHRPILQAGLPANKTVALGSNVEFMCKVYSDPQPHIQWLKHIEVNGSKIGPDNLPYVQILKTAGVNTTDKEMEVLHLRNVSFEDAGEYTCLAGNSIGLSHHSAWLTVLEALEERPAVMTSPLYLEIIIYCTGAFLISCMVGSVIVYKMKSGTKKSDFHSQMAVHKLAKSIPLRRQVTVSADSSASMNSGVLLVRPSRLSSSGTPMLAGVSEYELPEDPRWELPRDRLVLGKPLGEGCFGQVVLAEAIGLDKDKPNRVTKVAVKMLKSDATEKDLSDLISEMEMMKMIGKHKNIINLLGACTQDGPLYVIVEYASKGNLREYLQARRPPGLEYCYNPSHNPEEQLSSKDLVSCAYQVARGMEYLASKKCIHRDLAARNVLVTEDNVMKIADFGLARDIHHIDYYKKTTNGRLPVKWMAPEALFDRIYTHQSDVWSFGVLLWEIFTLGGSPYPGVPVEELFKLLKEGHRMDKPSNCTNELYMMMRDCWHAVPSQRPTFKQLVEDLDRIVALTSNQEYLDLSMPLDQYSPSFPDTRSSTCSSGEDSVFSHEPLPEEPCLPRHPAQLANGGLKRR
UniProt P21802, whole entry, looked up: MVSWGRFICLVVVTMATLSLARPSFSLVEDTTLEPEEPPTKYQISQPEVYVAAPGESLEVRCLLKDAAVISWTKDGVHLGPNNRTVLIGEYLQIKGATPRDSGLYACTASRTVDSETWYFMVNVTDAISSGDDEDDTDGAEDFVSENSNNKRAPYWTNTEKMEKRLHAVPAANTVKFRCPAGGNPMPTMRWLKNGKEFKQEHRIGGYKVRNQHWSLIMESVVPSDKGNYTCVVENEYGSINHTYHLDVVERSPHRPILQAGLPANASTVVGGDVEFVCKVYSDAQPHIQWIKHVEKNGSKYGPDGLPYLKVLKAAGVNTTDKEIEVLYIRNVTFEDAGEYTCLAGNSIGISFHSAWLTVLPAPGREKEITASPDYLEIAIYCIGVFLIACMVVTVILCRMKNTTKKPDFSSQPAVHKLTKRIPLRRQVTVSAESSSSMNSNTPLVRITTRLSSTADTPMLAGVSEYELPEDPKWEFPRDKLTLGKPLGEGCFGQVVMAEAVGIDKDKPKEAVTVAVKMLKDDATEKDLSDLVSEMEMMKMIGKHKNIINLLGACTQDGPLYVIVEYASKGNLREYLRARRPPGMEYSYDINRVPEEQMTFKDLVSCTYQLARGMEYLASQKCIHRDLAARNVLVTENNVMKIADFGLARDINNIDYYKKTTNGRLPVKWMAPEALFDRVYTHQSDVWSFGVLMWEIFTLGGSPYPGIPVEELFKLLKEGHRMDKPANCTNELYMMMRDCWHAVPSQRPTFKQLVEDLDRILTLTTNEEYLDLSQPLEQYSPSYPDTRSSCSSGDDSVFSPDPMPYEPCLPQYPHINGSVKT
UniProt P22607, whole entry, looked up: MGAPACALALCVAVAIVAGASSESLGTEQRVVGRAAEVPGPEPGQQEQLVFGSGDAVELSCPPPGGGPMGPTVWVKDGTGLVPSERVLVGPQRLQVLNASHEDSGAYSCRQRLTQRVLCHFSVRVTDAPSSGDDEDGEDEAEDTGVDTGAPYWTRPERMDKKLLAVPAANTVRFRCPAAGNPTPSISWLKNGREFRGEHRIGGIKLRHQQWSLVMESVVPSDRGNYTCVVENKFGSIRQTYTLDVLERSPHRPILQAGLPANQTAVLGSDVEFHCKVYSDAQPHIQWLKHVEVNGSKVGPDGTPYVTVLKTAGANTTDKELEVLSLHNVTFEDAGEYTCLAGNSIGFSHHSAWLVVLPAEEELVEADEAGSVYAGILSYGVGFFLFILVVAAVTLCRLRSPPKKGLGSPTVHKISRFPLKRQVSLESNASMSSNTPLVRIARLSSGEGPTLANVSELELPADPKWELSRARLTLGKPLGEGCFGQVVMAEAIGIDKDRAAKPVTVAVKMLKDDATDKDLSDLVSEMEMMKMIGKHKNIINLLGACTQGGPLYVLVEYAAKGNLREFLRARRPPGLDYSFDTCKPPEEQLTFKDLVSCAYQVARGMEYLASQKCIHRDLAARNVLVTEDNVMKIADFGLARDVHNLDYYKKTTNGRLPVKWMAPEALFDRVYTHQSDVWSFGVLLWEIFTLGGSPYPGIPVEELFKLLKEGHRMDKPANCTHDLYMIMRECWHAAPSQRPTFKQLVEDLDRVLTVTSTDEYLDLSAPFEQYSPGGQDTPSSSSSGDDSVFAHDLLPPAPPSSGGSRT
UniProt P36888, whole entry: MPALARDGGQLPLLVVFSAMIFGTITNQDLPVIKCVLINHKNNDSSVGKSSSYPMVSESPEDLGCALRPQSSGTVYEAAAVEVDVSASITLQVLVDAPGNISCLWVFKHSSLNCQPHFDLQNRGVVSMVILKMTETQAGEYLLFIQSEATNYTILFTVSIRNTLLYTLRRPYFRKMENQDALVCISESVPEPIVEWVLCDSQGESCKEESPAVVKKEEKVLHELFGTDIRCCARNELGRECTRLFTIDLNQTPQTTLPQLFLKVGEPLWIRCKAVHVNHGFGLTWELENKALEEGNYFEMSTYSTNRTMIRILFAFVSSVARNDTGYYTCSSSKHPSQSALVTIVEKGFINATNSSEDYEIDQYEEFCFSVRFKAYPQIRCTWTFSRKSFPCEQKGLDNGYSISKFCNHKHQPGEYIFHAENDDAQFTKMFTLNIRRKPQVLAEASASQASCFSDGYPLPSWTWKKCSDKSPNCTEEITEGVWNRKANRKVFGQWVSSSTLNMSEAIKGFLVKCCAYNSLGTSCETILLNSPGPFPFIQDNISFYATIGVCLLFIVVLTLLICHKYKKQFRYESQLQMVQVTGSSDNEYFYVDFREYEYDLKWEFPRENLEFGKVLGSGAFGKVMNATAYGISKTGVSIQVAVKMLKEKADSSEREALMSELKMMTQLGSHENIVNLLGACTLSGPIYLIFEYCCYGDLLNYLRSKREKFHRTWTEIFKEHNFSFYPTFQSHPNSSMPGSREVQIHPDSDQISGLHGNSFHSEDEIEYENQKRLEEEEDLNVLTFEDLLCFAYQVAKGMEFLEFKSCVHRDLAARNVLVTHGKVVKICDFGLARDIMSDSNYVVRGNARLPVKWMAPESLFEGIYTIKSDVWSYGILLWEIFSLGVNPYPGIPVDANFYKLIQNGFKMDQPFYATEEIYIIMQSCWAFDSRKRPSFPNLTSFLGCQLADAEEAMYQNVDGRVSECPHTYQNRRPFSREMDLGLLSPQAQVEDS
UniProt P06241, whole entry, looked up: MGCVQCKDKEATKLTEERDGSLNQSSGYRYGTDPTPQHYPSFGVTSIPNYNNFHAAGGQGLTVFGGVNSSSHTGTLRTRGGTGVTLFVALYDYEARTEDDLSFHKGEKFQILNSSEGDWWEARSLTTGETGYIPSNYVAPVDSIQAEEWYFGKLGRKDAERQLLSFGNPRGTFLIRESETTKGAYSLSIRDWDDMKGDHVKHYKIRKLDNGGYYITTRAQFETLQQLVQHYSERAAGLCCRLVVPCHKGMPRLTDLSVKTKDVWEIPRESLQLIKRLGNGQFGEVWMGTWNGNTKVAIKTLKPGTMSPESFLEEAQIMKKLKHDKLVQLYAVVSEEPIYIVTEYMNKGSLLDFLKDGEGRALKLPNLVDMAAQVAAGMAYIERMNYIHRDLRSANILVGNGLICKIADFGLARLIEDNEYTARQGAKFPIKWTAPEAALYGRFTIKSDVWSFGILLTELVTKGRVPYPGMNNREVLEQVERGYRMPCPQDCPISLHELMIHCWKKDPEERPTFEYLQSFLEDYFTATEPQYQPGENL
UniProt P14616: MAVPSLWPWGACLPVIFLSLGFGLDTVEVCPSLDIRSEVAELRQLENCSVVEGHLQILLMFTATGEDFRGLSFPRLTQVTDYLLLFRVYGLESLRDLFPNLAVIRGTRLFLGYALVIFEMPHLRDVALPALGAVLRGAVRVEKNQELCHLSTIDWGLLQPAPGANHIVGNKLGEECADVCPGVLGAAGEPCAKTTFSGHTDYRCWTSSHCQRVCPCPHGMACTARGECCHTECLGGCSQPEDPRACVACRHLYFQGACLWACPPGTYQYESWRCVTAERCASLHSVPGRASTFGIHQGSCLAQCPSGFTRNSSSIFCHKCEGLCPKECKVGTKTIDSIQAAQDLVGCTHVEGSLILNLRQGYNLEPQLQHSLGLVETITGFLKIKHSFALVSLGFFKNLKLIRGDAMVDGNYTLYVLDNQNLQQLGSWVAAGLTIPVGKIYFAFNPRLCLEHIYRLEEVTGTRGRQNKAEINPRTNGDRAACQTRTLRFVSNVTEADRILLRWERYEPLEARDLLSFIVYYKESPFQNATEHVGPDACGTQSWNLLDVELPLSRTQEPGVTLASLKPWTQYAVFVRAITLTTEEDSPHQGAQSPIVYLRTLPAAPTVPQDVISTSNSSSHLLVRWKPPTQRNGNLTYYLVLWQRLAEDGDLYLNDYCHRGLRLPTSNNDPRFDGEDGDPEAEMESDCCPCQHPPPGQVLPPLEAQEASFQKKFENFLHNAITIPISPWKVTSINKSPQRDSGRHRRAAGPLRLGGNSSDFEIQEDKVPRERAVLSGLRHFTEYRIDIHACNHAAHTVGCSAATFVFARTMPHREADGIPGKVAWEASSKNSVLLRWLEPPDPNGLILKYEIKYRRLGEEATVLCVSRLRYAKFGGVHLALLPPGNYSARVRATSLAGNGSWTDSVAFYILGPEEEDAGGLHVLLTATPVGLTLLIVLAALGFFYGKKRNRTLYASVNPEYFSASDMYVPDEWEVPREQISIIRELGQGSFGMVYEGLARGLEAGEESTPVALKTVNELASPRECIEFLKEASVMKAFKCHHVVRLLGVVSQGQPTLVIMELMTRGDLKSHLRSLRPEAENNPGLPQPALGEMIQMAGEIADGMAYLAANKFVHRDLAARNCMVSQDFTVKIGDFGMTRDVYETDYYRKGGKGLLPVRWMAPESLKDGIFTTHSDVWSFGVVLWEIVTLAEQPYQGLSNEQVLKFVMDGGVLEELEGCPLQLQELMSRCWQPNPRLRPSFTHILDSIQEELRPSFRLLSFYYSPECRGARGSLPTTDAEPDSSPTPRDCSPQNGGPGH

Assays:
Assay in all cases: kinase-Nluc reporter destabilization hit call (1 = scored as downregulated) (binary); higher = compound decreases kinase abundance
Conditions in all cases: K562; 2-18 h
ERN1 = ERN1 (UniProt O75460)
FGFR1 = FGFR1 (UniProt P11362)
FGFR2 = FGFR2 (UniProt P21802)
FGFR3 = FGFR3 (UniProt P22607)
FGR = FGR (UniProt P09769)
FLT3 = FLT3 (UniProt P36888)
FYN = FYN (UniProt P06241)
GSK3A = GSK3A (UniProt P49840)
HER2 = HER2 (UniProt P04626)
INSRR = INSRR (UniProt P14616)

Measured: kinase-Nluc reporter destabilization hit call

COc1cc2cc(Oc3ccc4ccc(=O)oc4c3)c(=O)oc2cc1O [Daphnoretin] (10 µM)
inactive: ERN1 = 0 | FGFR1 = 0 | FGFR2 = 0 | FGFR3 = 0 | FGR 0 | FLT3 = 0 | FYN 0 | GSK3A 0 | HER2 = 0 | INSRR 0

CCN(CC)CCOc1ccc(Nc2nc(-c3ccccc3NC(=O)CCN3CCN(C)CC3)nc3ccccc23)cc1 (2.5 µM)
inactive: ERN1 = 0 | FGFR1 = 0 | FGFR2 = 0 | FGFR3 = 0 | FGR 0 | FLT3 = 0 | FYN 0 | GSK3A 0 | HER2 = 0 | INSRR 0

CNC(=O)c1ccc2c(C(=Nc3cccc(CN(C)C)c3)c3ccccc3)c(O)[nH]c2c1 [MEK inhibitor] (10 µM)
inactive: ERN1 = 0 | FGFR1 = 0 | FGFR2 = 0 | FGFR3 = 0 | FGR 0 | FLT3 = 0 | FYN 0 | GSK3A 0 | HER2 = 0 | INSRR 0

Cc1c(Cl)cccc1S(=O)(=O)Nc1nc(NCCc2ccccc2)nc2c1CN(Cc1ccccc1)CC2 (2.5 µM)
inactive: ERN1 = 0 | FGFR1 = 0 | FGFR2 = 0 | FGFR3 = 0 | FGR 0 | FLT3 = 0 | FYN 0 | GSK3A 0 | HER2 = 0 | INSRR 0

COc1ccc2c3n(c(=NC(=O)c4cccnc4)nc2c1OC)CCN3 (2 µM)
inactive: ERN1 = 0 | FGFR1 = 0 | FGFR2 = 0 | FGFR3 = 0 | FGR 0 | FLT3 = 0 | FYN 0 | GSK3A 0 | HER2 = 0 | INSRR 0

C=CC(=O)N1CCN(C(=O)CNc2cc(I)c(Cl)cc2O)CC1 [K-Ras(G12C) inhibitor 12] (10 µM)
inactive: ERN1 = 0 | FGFR1 = 0 | FGFR2 = 0 | FGFR3 = 0 | FGR 0 | FLT3 = 0 | FYN 0 | GSK3A 0 | HER2 = 0 | INSRR 0

Nc1ncc(C(=O)NC2CN(C(=O)C3CC3)C2)c2ccc(-c3cccc(F)c3)nc12 (2 µM)
inactive: ERN1 = 0 | FGFR1 = 0 | FGFR2 = 0 | FGFR3 = 0 | FGR 0 | FLT3 = 0 | FYN 0 | GSK3A 0 | HER2 = 0 | INSRR 0

CC(C)n1c([C@H](C)Nc2ncnc(N)c2C#N)cc2cccc(-c3ccc(=O)n(C)c3)c2c1=O (10 µM)
inactive: ERN1 = 0 | FGFR1 = 0 | FGFR2 = 0 | FGFR3 = 0 | FGR 0 | FLT3 = 0 | FYN 0 | GSK3A 0 | HER2 = 0 | INSRR 0

CO[C@H]1CC[C@H](N2C(=O)CNc3ncc(-c4ccc(C(C)(C)O)nc4)nc32)CC1 (2.5 µM)
inactive: ERN1 = 0 | FGFR1 = 0 | FGFR2 = 0 | FGFR3 = 0 | FGR 0 | FLT3 = 0 | FYN 0 | GSK3A 0 | HER2 = 0 | INSRR 0

Cn1ncc(NC(=O)c2nc(-c3c(F)cccc3F)sc2N)c1N1CC[C@@H](N)[C@H](F)CC1 (10 µM)
inactive: ERN1 = 0 | FGFR1 = 0 | FGFR2 = 0 | FGFR3 = 0 | FGR 0 | FLT3 = 0 | FYN 0 | GSK3A 0 | HER2 = 0 | INSRR 0

Cc1cccc(-c2[nH]ncc2-c2ccnc3ccccc23)n1 (10 µM)
inactive: ERN1 = 0 | FGFR1 = 0 | FGFR2 = 0 | FGFR3 = 0 | FGR 0 | FLT3 = 0 | FYN 0 | GSK3A 0 | HER2 = 0 | INSRR 0

CC1CN(CC2CCN(Cc3ccccc3)CC2)C(=O)N(c2cccc(C(=N)N)c2)C1 (stereo not given) (10 µM)
inactive: ERN1 = 0 | FGFR1 = 0 | FGFR2 = 0 | FGFR3 = 0 | FGR 0 | FLT3 = 0 | FYN 0 | GSK3A 0 | HER2 = 0 | INSRR 0

COCCOCCc1c(C)c2cc(OC)c(O)c(C=O)c2oc1=O (10 µM)
inactive: ERN1 = 0 | FGFR1 = 0 | FGFR2 = 0 | FGFR3 = 0 | FGR 0 | FLT3 = 0 | FYN 0 | GSK3A 0 | HER2 = 0 | INSRR 0

O=c1cc(N2CCOCC2)oc2c(-c3ccc4c(c3)OCCO4)csc12 (2.5 µM)
inactive: ERN1 = 0 | FGFR1 = 0 | FGFR2 = 0 | FGFR3 = 0 | FGR 0 | FLT3 = 0 | FYN 0 | GSK3A 0 | HER2 = 0 | INSRR 0

CN1CCN(c2cc(-c3ccncc3)c(-c3ccc4ccccc4c3)nn2)CC1 (10 µM)
inactive: ERN1 = 0 | FGFR1 = 0 | FGFR2 = 0 | FGFR3 = 0 | FGR 0 | FLT3 = 0 | FYN 0 | GSK3A 0 | HER2 = 0 | INSRR 0

O=C(Nc1cc(Cl)cc2c1[nH]c1cnccc12)c1cccnc1 (10 µM)
inactive: ERN1 = 0 | FGFR1 = 0 | FGFR2 = 0 | FGFR3 = 0 | FGR 0 | FLT3 = 0 | FYN 0 | GSK3A 0 | HER2 = 0 | INSRR 0

N#Cc1cnc2c(Cl)cc(NCc3cn(CCN4CCCCCC4)nn3)cc2c1Nc1ccc(F)c(Cl)c1 [Cot inhibitor-1] (10 µM)
inactive: ERN1 = 0 | FGFR1 = 0 | FGFR2 = 0 | FGFR3 = 0 | FGR 0 | FLT3 = 0 | FYN 0 | GSK3A 0 | HER2 = 0 | INSRR 0

Oc1c(F)cc(-c2cnccc2-c2ccc(N3CCOCC3)cc2)cc1F (10 µM)
inactive: ERN1 = 0 | FGFR1 = 0 | FGFR2 = 0 | FGFR3 = 0 | FGR 0 | FLT3 = 0 | FYN 0 | GSK3A 0 | HER2 = 0 | INSRR 0

C=CC(=O)N1CCC[C@@H](n2nc(-c3ccc(Oc4ccccc4)cc3)c3c(N)n[nH]c(=O)c32)C1 [BTK inhibitor 17] (10 µM)
inactive: ERN1 = 0 | FGFR1 = 0 | FGFR2 = 0 | FGFR3 = 0 | FGR 0 | FLT3 = 0 | FYN 0 | GSK3A 0 | HER2 = 0 | INSRR 0

Nc1nccc(-c2c(-c3ccc(F)cc3)ncn2C2CCCCC2)n1 (10 µM)
inactive: ERN1 = 0 | FGFR1 = 0 | FGFR2 = 0 | FGFR3 = 0 | FGR 0 | FLT3 = 0 | FYN 0 | GSK3A 0 | HER2 = 0 | INSRR 0

No new results follow: two of the compounds above.
N#Cc1cnc2c(Cl)cc(NCc3cn(CCN4CCCCCC4)nn3)cc2c1Nc1ccc(F)c(Cl)c1 [Cot inhibitor-1] (10 µM)
inactive: ERN1 = 0 | FGFR1 = 0 | FGFR2 = 0 | FGFR3 = 0 | FGR 0 | FLT3 = 0 | FYN 0 | GSK3A 0 | HER2 = 0 | INSRR 0

Oc1c(F)cc(-c2cnccc2-c2ccc(N3CCOCC3)cc2)cc1F (10 µM)
inactive: ERN1 = 0 | FGFR1 = 0 | FGFR2 = 0 | FGFR3 = 0 | FGR 0 | FLT3 = 0 | FYN 0 | GSK3A 0 | HER2 = 0 | INSRR 0

Next entries:

N#C/C(=C\c1ccc(O)c(O)c1)C(=O)O [Tyrphostin AG30] (10 µM)
inactive: ERN1 = 0 | FGFR1 = 0 | FGFR2 = 0 | FGFR3 = 0 | FGR 0 | FLT3 = 0 | FYN 0 | GSK3A 0 | HER2 = 0 | INSRR 0

COc1cc(N2CCC(N3CCN(C)CC3)CC2)ccc1Nc1ncc(Cl)c(-c2c[nH]c3ccccc23)n1 (2.5 µM)
inactive: ERN1 = 0 | FGFR1 = 0 | FGFR2 = 0 | FGFR3 = 0 | FGR 0 | FLT3 = 0 | FYN 0 | GSK3A 0 | HER2 = 0 | INSRR 0

CCCn1/c(=N/C(=O)c2cccc(C(N)=O)c2)[nH]c2ccccc21 [Takinib] (10 µM)
inactive: ERN1 = 0 | FGFR1 = 0 | FGFR2 = 0 | FGFR3 = 0 | FGR 0 | FLT3 = 0 | FYN 0 | GSK3A 0 | HER2 = 0 | INSRR 0

Cc1nc[nH]c1CN1CCN(C(=O)N[C@@H](CC(C)C)C(=O)O)[C@@H](Cc2ccccc2)C1=O (10 µM)
inactive: ERN1 = 0 | FGFR1 = 0 | FGFR2 = 0 | FGFR3 = 0 | FGR 0 | FLT3 = 0 | FYN 0 | GSK3A 0 | HER2 = 0 | INSRR 0

CC(C)CCN1c2nc(Nc3cc(F)c(O)c(F)c3)ncc2N(C)C(=O)C1C (stereo not given) (2.5 µM)
inactive: ERN1 = 0 | FGFR1 = 0 | FGFR2 = 0 | FGFR3 = 0 | FGR 0 | FLT3 = 0 | FYN 0 | GSK3A 0 | HER2 = 0 | INSRR 0

CC1=C(C(=O)Nc2cc3cn[nH]c3cc2F)C(c2ccc(C(F)(F)F)cc2)CC(=O)N1 (stereo not given) (10 µM)
inactive: ERN1 = 0 | FGFR1 = 0 | FGFR2 = 0 | FGFR3 = 0 | FGR 0 | FLT3 = 0 | FYN 0 | GSK3A 0 | HER2 = 0 | INSRR 0

COc1cc2ncnc(Nc3ccc(O)c(Br)c3)c2cc1OC (10 µM)
inactive: ERN1 = 0 | FGFR1 = 0 | FGFR2 = 0 | FGFR3 = 0 | FGR 0 | FLT3 = 0 | FYN 0 | GSK3A 0 | HER2 = 0 | INSRR 0

O=C(Nc1cccc(-c2nc(-c3ccc(NC(=O)c4cccnc4)cc3Cl)no2)c1)Nc1ccc(NC(=O)C2CC2)c(C(F)(F)F)c1 (2.5 µM)
inactive: ERN1 = 0 | FGFR1 = 0 | FGFR2 = 0 | FGFR3 = 0 | FGR 0 | FLT3 = 0 | FYN 0 | GSK3A 0 | HER2 = 0 | INSRR 0

COc1cc(F)ccc1-c1ncnc(Nc2cccc(C[S@](C)(=N)=O)c2)n1 [Atuveciclib] (2.5 µM)
inactive: ERN1 = 0 | FGFR1 = 0 | FGFR2 = 0 | FGFR3 = 0 | FGR 0 | FLT3 = 0 | FYN 0 | GSK3A 0 | HER2 = 0 | INSRR 0
